Results are given in words; binding and its absence hold for the method and conditions named. In cells and extracts the contact can be indirect. Some binding calls cover weakened binding; strength is not graded here. Values belong to the molecule of their own block, whether it stands above or below them.
Legend:
[1] = molecular target: MBD3 (experiments of Supplementary Fig. 6G-I) (human) (UniProt O95983); assay: co-IP; immunoprecipitation assay with truncated TET2 and MBD3 (Supplementary Fig. 6H and I); cells and tags not stated
[2] = molecular target: endogenous MBD3 (human (endogenous in HEK293T)) (UniProt O95983); assay: co-IP; endogenous proteins of HEK293T cells; immunoprecipitation with anti-IgG or anti-MBD3, immunoblotting with anti-MKRN3 or anti-MBD3

Sequences of proteins named here, by UniProt entry; tags and fusion partners are left off. Residues count along the entry.
UniProt O95983: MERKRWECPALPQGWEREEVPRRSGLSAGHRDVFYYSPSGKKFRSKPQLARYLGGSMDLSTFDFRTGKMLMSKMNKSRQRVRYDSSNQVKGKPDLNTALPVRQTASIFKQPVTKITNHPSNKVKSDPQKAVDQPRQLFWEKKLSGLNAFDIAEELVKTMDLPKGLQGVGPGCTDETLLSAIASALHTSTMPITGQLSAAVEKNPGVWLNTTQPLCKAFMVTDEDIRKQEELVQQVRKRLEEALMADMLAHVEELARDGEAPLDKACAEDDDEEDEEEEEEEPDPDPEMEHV
UniProt Q4JK59, residues 1099-1912: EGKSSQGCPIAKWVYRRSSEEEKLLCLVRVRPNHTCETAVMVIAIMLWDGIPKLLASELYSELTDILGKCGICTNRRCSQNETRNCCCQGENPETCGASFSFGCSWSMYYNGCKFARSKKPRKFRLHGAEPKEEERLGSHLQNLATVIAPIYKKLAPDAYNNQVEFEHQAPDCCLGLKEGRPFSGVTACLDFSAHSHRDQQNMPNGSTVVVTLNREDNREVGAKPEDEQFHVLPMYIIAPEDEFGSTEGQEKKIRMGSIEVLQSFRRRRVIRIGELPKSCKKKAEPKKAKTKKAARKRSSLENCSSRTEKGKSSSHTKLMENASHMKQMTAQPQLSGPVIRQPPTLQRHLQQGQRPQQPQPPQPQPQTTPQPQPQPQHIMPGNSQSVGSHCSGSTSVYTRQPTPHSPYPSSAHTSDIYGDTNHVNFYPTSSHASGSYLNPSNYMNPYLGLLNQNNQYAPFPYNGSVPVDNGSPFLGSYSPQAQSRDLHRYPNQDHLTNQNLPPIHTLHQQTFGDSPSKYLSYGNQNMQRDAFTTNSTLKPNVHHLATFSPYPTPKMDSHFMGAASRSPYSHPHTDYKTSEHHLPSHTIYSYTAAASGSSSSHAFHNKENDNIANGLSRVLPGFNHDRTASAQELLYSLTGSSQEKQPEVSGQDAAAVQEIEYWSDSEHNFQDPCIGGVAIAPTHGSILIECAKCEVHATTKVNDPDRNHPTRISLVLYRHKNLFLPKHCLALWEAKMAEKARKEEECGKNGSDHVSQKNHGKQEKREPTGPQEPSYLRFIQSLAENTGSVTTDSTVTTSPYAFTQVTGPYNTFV

binding [1]: binds
Molecule: C-terminal region of TET2 (residues 1099–1912) (from UniProt Q4JK59 1099-1912) (domain or fragment)

binding [2]: binds
B1: endogenous MKRN3 (enzyme, UniProt Q13064 1-507)
chain: MEEPAAPSEAHEAAGAQAGAEAAREGVSGPDLPVCEPSGESAAPDSALPHAARGWAPFPVAPVPAHLRRGGLRPAPASGGGAWPSPLPSRSSGIWTKQIICRYYIHGQCKEGENCRYSHDLSGRKMATEGGVSPPGASAGGGPSTAAHIEPPTQEVAEAPPAASSLSLPVIGSAAERGFFEAERDNADRGAAGGAGVESWADAIEFVPGQPYRGRWVASAPEAPLQSSETERKQMAVGSGLRFCYYASRGVCFRGESCMYLHGDICDMCGLQTLHPMDAAQREEHMRACIEAHEKDMELSFAVQRGMDKVCGICMEVVYEKANPNDRRFGILSNCNHSFCIRCIRRWRSARQFENRIVKSCPQCRVTSELVIPSEFWVEEEEEKQKLIQQYKEAMSNKACRYFAEGRGNCPFGDTCFYKHEYPEGWGDEPPGPGGGSFSAYWHQLVEPVRMGEGNMLYKSIKKELVVLRLASLLFKRFLSLRDELPFSEDQWDLLHYELEEYFNLIL
